# Source: article PMC9481523
# Protein sequences, listed by entry. Tags and fused reporters are not part of them.
# UniProt P22314: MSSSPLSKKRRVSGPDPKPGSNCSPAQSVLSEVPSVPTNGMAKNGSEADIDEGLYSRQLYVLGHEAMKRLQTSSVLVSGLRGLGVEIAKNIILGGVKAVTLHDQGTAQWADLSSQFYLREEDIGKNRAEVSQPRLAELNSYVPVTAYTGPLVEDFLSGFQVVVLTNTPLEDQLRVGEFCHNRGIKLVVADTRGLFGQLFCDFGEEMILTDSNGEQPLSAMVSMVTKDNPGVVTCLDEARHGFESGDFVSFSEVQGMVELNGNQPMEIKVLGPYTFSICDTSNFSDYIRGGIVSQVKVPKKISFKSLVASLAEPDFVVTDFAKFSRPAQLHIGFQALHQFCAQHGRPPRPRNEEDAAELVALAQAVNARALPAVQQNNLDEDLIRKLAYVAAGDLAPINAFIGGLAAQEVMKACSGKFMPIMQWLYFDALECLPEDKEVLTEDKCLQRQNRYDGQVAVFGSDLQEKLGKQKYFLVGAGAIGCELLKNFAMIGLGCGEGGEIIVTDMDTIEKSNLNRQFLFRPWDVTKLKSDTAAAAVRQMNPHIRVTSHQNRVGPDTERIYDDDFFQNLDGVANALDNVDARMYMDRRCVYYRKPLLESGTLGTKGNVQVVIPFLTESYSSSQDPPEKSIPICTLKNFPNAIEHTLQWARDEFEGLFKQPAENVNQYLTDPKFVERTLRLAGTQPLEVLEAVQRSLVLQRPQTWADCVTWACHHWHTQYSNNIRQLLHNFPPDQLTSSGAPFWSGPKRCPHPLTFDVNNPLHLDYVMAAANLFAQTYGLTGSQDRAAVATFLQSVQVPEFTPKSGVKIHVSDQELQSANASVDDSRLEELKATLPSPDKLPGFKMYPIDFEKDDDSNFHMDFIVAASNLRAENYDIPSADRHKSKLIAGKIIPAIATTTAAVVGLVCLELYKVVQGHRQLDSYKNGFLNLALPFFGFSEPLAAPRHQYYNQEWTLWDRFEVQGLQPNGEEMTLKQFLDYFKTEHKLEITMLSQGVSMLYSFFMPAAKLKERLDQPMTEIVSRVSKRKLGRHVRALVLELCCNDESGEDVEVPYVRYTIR
# How the values were obtained:
# [1] = molecular target: T1, S100A14 (human (endogenous in SCC15)) (UniProt Q9HCY8); assay: condition: only in CAV2-silenced (shCAV2) SCC15 cells; affinity purification with mass spectrometry; immunoprecipitation with anti-S100A14 from shCAV2 (CAV2-silenced) SCC15 cell lysate, TMT proteomics and LC-MS
# T1 sequence: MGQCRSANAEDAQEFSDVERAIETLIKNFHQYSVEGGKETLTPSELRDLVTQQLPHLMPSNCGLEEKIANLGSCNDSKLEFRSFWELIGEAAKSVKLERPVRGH
# [2] = molecular target: T1, S100A14 (human (endogenous in SCC15)); assay: affinity purification with mass spectrometry; immunoprecipitation with anti-S100A14 from wild-type SCC15 cell lysate, TMT proteomics and LC-MS
substance,measurement,setting,value
E1 ubiquitin-activating enzyme UBE1 (from UniProt P22314 1-1058),binding,[1],no binding
same,binding,[2],binds

# No constants are given. Whether binding was seen depends on the method and setting. In cells and extracts the contact can be indirect. A yes stands for co-enrichment or nearness to the bait. Other partners may have been found. For some assays here: No binding means not detected with the bait.
